# No constants are given. Whether binding was seen depends on the method and setting. Binding seen in cells or lysates may run through a third protein. Binding can be weak; no strength is given.
# Molecular target: mosquito salivary gland secreted protein SG1 (not stated (endogenous in mosquito salivary glands; An. gambiae and An. stephensi colonies kept))
# Assay: cross-linking; double-derivatized SM1 (10 µg/ml in PBS) incubated with freshly dissected salivary glands 1 h at 4°C in the dark, washed, UV 30 min, glands lysed (0.1% NP40), capture on streptavidin-agarose beads, SDS-PAGE under reducing conditions, bands identified by LC/MS/MS; only the binder purified
binder,measurement,value
PCQRAIFQSICN [double-derivatized SM1 peptide],binding,binds
